Results on 1 molecule are retold here after PMC4605311, “Structure of mitochondrial poly(A) RNA polymerase reveals the structural basis for dimerization, ATP selectivity and the SPAX4 disease phenotype” (Nucleic Acids Research, 2015).

Where a chain is given by its changes, count along the chain named. In names and notes the source's numbering stands. No constants are given. Whether binding was seen depends on the method and setting. In cells and extracts the contact can be indirect. Some binding calls cover weakened binding; strength is not graded here. Tags and fused reporters may be left off the sequences shown.

The target of the test is T1, maltose-binding protein-tagged WT chicken mtPAP (Gallus gallus) (UniProt F1NBW0).
T1 sequence: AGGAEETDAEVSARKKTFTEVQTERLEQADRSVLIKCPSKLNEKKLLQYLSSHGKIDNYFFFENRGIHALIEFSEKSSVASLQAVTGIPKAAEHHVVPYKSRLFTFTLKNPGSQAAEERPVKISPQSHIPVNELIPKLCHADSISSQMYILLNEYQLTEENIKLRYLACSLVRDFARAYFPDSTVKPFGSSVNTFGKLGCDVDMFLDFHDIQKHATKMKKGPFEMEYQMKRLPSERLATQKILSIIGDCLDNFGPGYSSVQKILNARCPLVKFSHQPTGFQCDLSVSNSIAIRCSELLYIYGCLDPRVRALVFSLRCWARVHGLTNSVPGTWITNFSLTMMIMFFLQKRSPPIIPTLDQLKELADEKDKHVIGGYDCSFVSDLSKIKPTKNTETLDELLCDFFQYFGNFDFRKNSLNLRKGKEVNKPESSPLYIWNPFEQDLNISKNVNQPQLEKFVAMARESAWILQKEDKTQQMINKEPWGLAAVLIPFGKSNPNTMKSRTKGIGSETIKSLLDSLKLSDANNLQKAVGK
In words: pull-down; co-expression of MBP–mtPAP WT and His-tagged D237N mtPAP in KRX cells; soluble lysate on amylose resin, eluted with 40 mM maltose, then HisTrap column; SDS gel of the product.

B1: His-tagged D237N chicken mtPAP (enzyme, UniProt F1NBW0 37-568)
chain: T1 sequence with D201N
In the case of B1, the binding result is listed as “binds”.
